# Test results from PubChem BioAssay AID1487 (National Center for Advancing Translational Sciences (NCATS), 2009).
# The other results are listed elsewhere or left out. These are further read-outs of the screen, such as a control signal, another cell line or another target. No call is given for them. Compounds called inactive in the main read-out are mostly missing here. The note in brackets gives the kind of curve behind each potency; many fits are weak.
# Test: qHTS Assay for Modulators of Lamin A Splicing
# Conditions: HeLa LMNA splicing GFP/RFP minigene ratio, 48 h
# Procedure, shortened: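 Read-out is the ratio of GFP to DsRed2 object intensity, acquired by 488 nm laser-scanning cytometry on HeLa lamin A-EGFP minigene reporter cells. Compound incubation 48 hrs at 37 °C in Opti-MEM with 2% FBS; DMSO 0.5% final.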
# [1] = measured here: GFP splicing reporter channel
# [2] = measured here: RFP viability control channel
SMILES,AC50 [1],AC50 [2]
Cc1ccccc1CSc1nc2c(c(=O)[nH]1)CCC2,"20 µM [rising, partial curve]","35.5 µM [rising, single point]"
Cc1sc(Nc2ccc([N+](=O)[O-])cc2)nc1-c1c(C)n(C)n(-c2ccccc2)c1=O,"12.6 µM [rising, single point]","28.2 µM [rising, single point]"
O=C(NNC(=O)C(c1ccccc1)c1ccccc1)c1ccccn1,"3.16 µM [rising, full curve]","3.98 µM [rising, full curve]"
COC(=O)C(Nc1nccs1)(OC)C(F)(F)F (centres undefined),–,"20 µM [falling, partial curve, poor fit]"
O=c1oc2c(O)c(O)cc3c(=O)oc4c(O)c(O)cc1c4c23,"3.16 µM [falling, single point]","3.98 µM [falling, single point]"
CCOc1cc(/C=C2\SC(=N)N(c3nonc3N)C2=O)ccc1OCC(N)=O,"22.4 µM [falling, single point]",–
O=c1c2c(nc3c(-c4ccc(Cl)cc4)c[nH]n13)CCC2,–,"1.12 µM [rising, partial curve, poor fit]"
Cc1nn(C)c(C(=O)NCc2ccc(Cl)cc2)c1Cl,"2.24 µM [rising, full curve]","2.51 µM [rising, full curve]"
COc1cc(/C=N/NC(=O)COc2cccc(F)c2)ccc1OS(=O)(=O)c1ccc(C)cc1,"0.891 µM [rising, partial curve]","20 µM [rising, partial curve]"
C=CCNC(=S)Nc1ccc(Cl)cc1F,–,"0.02 µM [falling, full curve, poor fit]"
Cc1nc2ccn(Cc3cccs3)c(=O)c2cc1C(=O)NCc1ccc(Cl)cc1,"0.00447 µM [rising, full curve, poor fit]","0.891 µM [rising, full curve, poor fit]"
O=C(CCN1CCOCC1)N1CCc2c([nH]c3ccccc23)C1c1cccc(Cl)c1 (centres undefined),"3.98 µM [falling, full curve, poor fit]","1.41 µM [falling, partial curve, poor fit]"
c1coc(CNc2ncnc3c2oc2ccccc23)c1,–,"14.1 µM [rising, partial curve]"
COc1ccc(-n2nnnc2S(=O)(=O)Cc2ccc(C(=O)O)cc2)cc1,"22.4 µM [falling, single point]","28.2 µM [falling, single point]"
COC(=O)C1=C(N)Oc2cc(C)n(CC3CCCO3)c(=O)c2C1c1ccc(Cl)c(Cl)c1 (centres undefined),"35.5 µM [rising, single point]","35.5 µM [rising, single point]"
CCOc1cc(/C=N/NC(=O)C(C)Sc2ccccc2)ccc1O (centres undefined),"0.0631 µM [rising, full curve, poor fit]",–
CCCc1cc(C(=O)Cc2ccc(F)cc2)c(O)cc1O,"11.2 µM [rising, partial curve]","14.1 µM [rising, single point]"
CCOC(=O)C(CC)(CC)C(=O)/C=C/c1ccc(Br)cc1,"14.1 µM [falling, partial curve]","12.6 µM [falling, partial curve]"
COCCCNC(=O)C(C#N)c1nc2ccccc2nc1N1CCN(Cc2ccccc2)CC1 (centres undefined),–,"10 µM [falling, partial curve]"
CC(C)(C)C(=O)Nc1cccc2[nH]ncc12,"0.00398 µM [rising, full curve, poor fit]","0.631 µM [falling, single point]"
Cc1cccc(NC(=S)N2CCCN(c3ncccc3[N+](=O)[O-])CC2)c1,–,"35.5 µM [falling, single point]"
Cc1ccc(-c2nc3cccnc3s2)cc1NS(=O)(=O)c1ccc2c(c1)CCCC2,–,"10 µM [rising, partial curve]"
O=C1c2cnc3nc(SCc4ccc(Cl)cc4)nn3c2CC2c3ccccc3CCN12 (centres undefined),"20 µM [rising, single point]",–
CCCC(=O)Nc1ccc(NC(=S)NC(=O)c2ccccc2[N+](=O)[O-])cc1,–,"22.4 µM [rising, single point]"
CNC(=O)/C(C#N)=C/c1ccc(-c2ccc(Cl)cc2)o1,–,"12.6 µM [falling, partial curve, poor fit]"
CCN(CC)S(=O)(=O)c1cc(NC(=O)C(=O)c2c(-c3ccccc3)cc3ccccn23)ccc1C,–,"12.6 µM [rising, partial curve]"
CCOC(=O)c1c(NC(=O)CSC(=S)N(C)C)sc(C)c1C,"12.6 µM [rising, partial curve]","20 µM [rising, partial curve, poor fit]"

SMILES,AC50 [1],AC50 [2]
CC(C)=NNc1nc(-c2ccccc2)cs1,–,"35.5 µM [rising, single point]"
CCCC1=Nc2cc(C(=O)NCCCOC(C)C)ccc2Sc2ccccc21,–,"7.08 µM [rising, partial curve]"
Cc1ccc(-c2noc(CN3CCN(Cc4ccccc4)CC3)n2)cc1,–,"35.5 µM [rising, single point]"
CCNC(=S)NNC(=O)c1csc2c1CCCC2,"3.55 µM [falling, single point]",–
COc1ccccc1NS(=O)(=O)c1ccc(C)c(NC(=O)c2ccc(S(=O)(=O)N3CCCCCC3)cc2)c1,–,"3.98 µM [rising, full curve]"
O=C(c1ccc2c(c1)N(Cc1cccc(Cl)c1)C(=O)c1ccccc1S2(=O)=O)N1CCCCCC1,"22.4 µM [falling, partial curve, poor fit]","28.2 µM [falling, partial curve]"
Cc1onc(-c2ccccc2Cl)c1C(=O)Nc1ccccc1C(=O)NC(C)C,"11.2 µM [rising, partial curve]","11.2 µM [rising, partial curve]"
CCOc1cc(CNc2ccc(S(N)(=O)=O)cc2)cc(Cl)c1OC,–,"35.5 µM [rising, single point]"
NNC(=O)CNC(c1ccccc1)c1cc(Br)ccc1NC(=O)CCN1CCOCC1 (centres undefined),"35.5 µM [falling, single point]","35.5 µM [falling, single point]"
C=CCn1c(SCC(=O)Nc2sccc2C(N)=O)nc2sc(CC)cc2c1=O,–,"6.31 µM [rising, partial curve, poor fit]"
COc1ccc(CCNC(=O)NC23CC4CC(CC(C4)C2)C3)cc1,–,"35.5 µM [rising, single point]"
CC(Oc1ccccc1)C(=O)N/N=C/c1ccccn1 (centres undefined),–,"7.08 µM [falling, partial curve]"
C/C(=N/NC(=O)c1ccc(Br)o1)c1ccc(C)o1,–,"0.126 µM [rising, full curve, poor fit]"
Cc1ccc(C(=O)c2ccc(N3CCN(C)CC3)c([N+](=O)[O-])c2)cc1,–,"12.6 µM [rising, single point]"
COc1ccc(Cc2noc(CN(C)CCN3CCc4ccccc4C3)n2)cc1OC,–,"0.0141 µM [falling, full curve, poor fit]"
Cc1ccc(-c2c(C(=O)N(C)Cc3ccccc3)oc(=O)c3ccccc23)cc1,"15.8 µM [rising, single point]",–
COc1ccc(C(=O)c2c(C(F)(F)F)oc3c2C(=O)c2ccccc2C3=O)cc1OC,"3.55 µM [falling, full curve]","4.47 µM [falling, full curve]"
O=c1cc(-c2cccc(F)c2)[nH]c2ccccc12,"5.62 µM [rising, single point]","3.55 µM [rising, partial curve]"
Cc1oc(C(C)(C)C)cc1C(=O)Nc1ccc2c(c1)OCCO2,"12.6 µM [rising, partial curve]","15.8 µM [rising, partial curve]"
CC(C)(C)Nc1nc2nonc2nc1NC(C)(C)C,–,"31.6 µM [rising, single point]"
CC(C)NS(=O)(=O)c1ccc(NC(=O)C(C)Oc2ccc(C(=O)c3ccccc3)cc2)cc1 (centres undefined),"31.6 µM [falling, single point]","35.5 µM [falling, single point]"
O=C(COC(=O)c1cc[n+]([O-])cc1)Nc1cccc(Cl)c1Cl,"0.00447 µM [rising, full curve, poor fit]",–
Cc1cc(NO)c(C(C)C)cc1N=O,"14.1 µM [rising, single point]","25.1 µM [rising, single point]"
COc1ccc(NC(=O)C2CCCN(c3c4c(nc5ncnn35)CCC4)C2)cc1OC (centres undefined),"14.1 µM [rising, single point]","15.8 µM [rising, single point]"
Cc1ccc(S(=O)(=O)c2c(C)nn(C(C)(C)C)c2OC(=O)C2CCCC2)cc1,–,"35.5 µM [falling, single point]"
CSc1cccc(NC(=O)C2CCCN(S(=O)(=O)c3ccc4c(c3)CCCN4C(C)=O)C2)c1 (centres undefined),"11.2 µM [falling, partial curve]","22.4 µM [falling, single point]"
Cc1ccc(C(=O)Cn2c(C(=O)/C=C/c3ccccc3)nc3ccccc32)cc1,"15.8 µM [falling, partial curve]","14.1 µM [falling, partial curve]"

# Of the compounds above, 2 contain a CF3 group.
SMILES,AC50 [1],AC50 [2]
COC(=O)C(Nc1nccs1)(OC)C(F)(F)F (centres undefined),–,"20 µM [falling, partial curve, poor fit]"
COc1ccc(C(=O)c2c(C(F)(F)F)oc3c2C(=O)c2ccccc2C3=O)cc1OC,"3.55 µM [falling, full curve]","4.47 µM [falling, full curve]"
